Our source for the binding values is publication PMC3355077.

By UniProt entry, the sequences of proteins in these tests, tags left out. Where a name states a change or a piece, a line headed by the entry shows the natural chain unless it says otherwise. Chains listed by the source or under a name are the forms on record and can include a tag or linker.
GST-p52 (Q99JF8, form named): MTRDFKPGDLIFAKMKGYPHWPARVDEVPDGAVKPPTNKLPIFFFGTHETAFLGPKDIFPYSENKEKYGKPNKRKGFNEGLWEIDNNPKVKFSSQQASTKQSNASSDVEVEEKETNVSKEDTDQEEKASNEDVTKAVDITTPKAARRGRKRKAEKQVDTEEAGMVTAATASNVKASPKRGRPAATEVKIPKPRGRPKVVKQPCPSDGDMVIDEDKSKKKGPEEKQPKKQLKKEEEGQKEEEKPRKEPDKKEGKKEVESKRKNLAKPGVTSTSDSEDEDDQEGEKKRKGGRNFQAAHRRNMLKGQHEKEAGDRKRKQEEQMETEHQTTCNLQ

Results are given in words; binding and its absence hold for the method and conditions named. Binding seen in cells or lysates may run through a third protein. Some entries that bind do so weakly or less than the wild type. Tags and fused reporters may be left off the sequences shown.

The experiment concerns the target GST-p52 (mouse) (UniProt Q99JF8). The experiment can be described thus: pull-down; GST-p52 or GST-PWWP on glutathione beads incubated with lysates of 293T cells overexpressing tagged SR proteins, GST lysis buffer, 5 washes; immunoblot with αT7 or αGFP; only the target purified. (A western blot detects proteins with antibodies after separation by electrophoresis.)

B1: T7-SRSF3 (protein, UniProt P84103 1-164)
chain: MHRDSCPLDCKVYVGNLGNNGNKTELERAFGYYGPLRSVWVARNPPGFAFVEFEDPRDAADAVRELDGRTLCGCRVRVELSNGEKRSRNRGPPPSWGRRPRDDYRRRSPPPRRRSPRRRSFSRSRSRSLSRDRRRERSLSRERNHKPSRSFSRSRSRSRSNERK
As for B1, the binding entry is listed as “binds”.

B2: GFP-SRSF2 (protein, UniProt Q01130 1-221)
chain: MSYGRPPPDVEGMTSLKVDNLTYRTSPDTLRRVFEKYGRVGDVYIPRDRYTKESRGFAFVRFHDKRDAEDAMDAMDGAVLDGRELRVQMARYGRPPDSHHSRRGPPPRRYGGGGYGRRSRSPRRRRRSRSRSRSRSRSRSRSRYSRSKSRSRTRSRSRSTSKSRSARRSKSKSSSVSRSRSRSRSRSRSRSPPPVSKRESKSRSRSKSPPKSPEEEGAVSS
On to B2, for which the binding result is listed as “no binding”.
